Experiment [1] concerns Saccharomyces cerevisiae HF7c pdr5Δ. Description: general growth inhibition of yeast HF7c pdr5Δ in -Leu -Trp medium, relative to DMSO; higher = stronger general growth inhibition. To be noted: 100 µM; 24 h.
In experiment [2] the test system is human PEX3-PEX19 interaction (yeast two-hybrid). Nature of the experiment: growth inhibition of yeast two-hybrid strain reporting HsPex3-HsPex19 interaction, relative to DMSO; higher = stronger inhibition of human Pex3-Pex19 interaction / growth. The settings on record: 100 µM; 24 h; 3-aminotriazole 10 mM.
The subject of experiment [3] is T. brucei Pex3-Pex19 interaction (yeast two-hybrid). Description: growth inhibition of yeast two-hybrid strain reporting TbPex3-TbPex19 interaction, relative to DMSO; higher = stronger inhibition of T. brucei Pex3-Pex19 interaction / growth. To be noted: 100 µM; 24 h.

Molecules are shown by their SMILES. Counter-ions that a name gives are not always drawn. Some of the results follow. This is a noisy data set.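 Yeast growth was read as optical density at 600 nm. The two-hybrid strains grew without histidine, so growth needed the Pex3–Pex19 binding; a compound counted as trypanosome-selective if it cut growth of the trypanosome-pair strain by more than 65% and the human-pair strain by less than 65%.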

Turning to `N[C@@H]1C[C@H]1c1ccccc1` [Tranylcypromine hydrochloride], in experiment [1], the general growth inhibition was 47.2%. Moreover, the growth inhibition in experiment [2] is 54.5%; in experiment [3], 64.6%.
`C[C@@H]1O[C@@H](O[C@H]2C[C@@H](O)[C@]3(CO)[C@H]4[C@H](O)C[C@]5(C)[C@@H](C6=CC(=O)OC6)CC[C@]5(O)[C@@H]4CC[C@]3(O)C2)[C@H](O)[C@H](O)[C@H]1O` [Ouabain] came in with a general growth inhibition in experiment [1] of 44.2%. Also, the figures for the growth inhibition in experiment [2] and in experiment [3] were 45% and 46.7%, respectively.
The like results for `Cc1c2ccncc2c(C)c2c1[nH]c1ccccc12` [Ellipticine] were, in that order, 87.8%, 84.2% and 81.5%.
Compound `O=C(N[C@H]1CN2CCC1CC2)c1cc2ccoc2cn1` showed a general growth inhibition in experiment [1] of 43%. Besides, the growth inhibition in experiment [2] stood at 38%; in experiment [3], 56.5%.
In experiment [1], `CNCCc1ccc(O)c(O)c1` [N-Methyldopamine hydrochloride] gave a general growth inhibition of 31.9%. The growth inhibition in experiment [2] was found to be 47.6%; in experiment [3], 60.4%.
The like results for `COc1ccc(OC)c(C(O)C(C)N)c1` (stereo not drawn) [Methoxamine hydrochloride] were, in that order, 52%, 45.1% and 67.5%.
The like results for `Nc1ccncc1` [4-Aminopyridine] were, in that order, 42.1%, 43% and 61.7%.
The like results for `C=CCc1ccccc1OCC(O)CNC1(C)CCC(C(C)(C)NC(=O)CBr)CC1` (stereo not drawn) [Bromoacetyl alprenolol menthane] were, in that order, 41.7%, 63.1% and 67.1%.
The compound `COC(=O)N1CCN(C(=O)Cc2ccc(Cl)c(Cl)c2)C(CN2CCCC2)C1` (stereo not drawn) gave a general growth inhibition in experiment [1] of 38.1%. Also, the growth inhibition is 38.7% in experiment [2] and 48.6% in experiment [3].
The like results for `NCC1(CC(=O)O)CCCCC1` [Gabapentin] were, in that order, 33.2%, 36.9% and 55%.
For `CCC1(c2ccc(N)cc2)CCC(=O)NC1=O` (racemic) [(±)-p-Aminoglutethimide], in that order: 46.1%, 40.3% and 52.4%.

Values taken from the supplement of paper PMC8326762, “A Small Molecule Inhibitor of Pex3–Pex19 Interaction Disrupts Glycosome Biogenesis and Causes Lethality in Trypanosoma brucei” (Frontiers in Cell and Developmental Biology, 2021).
